One may read the AC50 as the concentration at which the activity in the assay is half-maximal.

This experiment can be described thus: qHTS Assay to Find Inhibitors of Chronic Active B-Cell Receptor Signaling. Conditions: ABC-DLBCL IkBa-CBG/CBR reporter, luminescence ratio (green luciferase fused to IkBa over red control in TMD8 lymphoma cells), 4 h. The procedure, abridged:
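Doxycycline induced both beetle luciferases in TMD8 lymphoma cells; IKK-driven degradation limits the IkappaBalpha-fused green signal, while red luminescence normalises for cell number and nonspecific effects. Compounds tested up to 46 uM, 4 hrs.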

Setting [1] is: measured here: CBR red luminescence, cell number.
Setting [2] is: measured here: IkBa-CBG green luminescence.

The other results are listed elsewhere or left out. Shown are side measurements of this screen, not its main read-out; they come without a call. The list favours compounds with an active or inconclusive main result. Words in brackets tell the shape of the fitted curve; partial curves, single points and poor fits give uncertain potencies.

Take `COc1ccc(CCNc2nc(-c3ccco3)cc(C(F)(F)F)n2)cc1OC`: under setting [1], the AC50 was 11.2 µM [falling, partial curve, poor fit]. The same measure, in the same setting: for `O=C(c1ccccn1)N1CCN(S(=O)(=O)c2ccc3ccccc3c2)CC1` the value was 31.6 µM [rising, partial curve, poor fit]; for `O=C(Nc1ncc(Cc2cccc(Cl)c2)s1)c1cccs1`, 11.2 µM [falling, partial curve, poor fit]; for `COc1ccc2c(c1)cc(C(=O)O)n2C`, 23.1 µM [falling, single point]. For the compound `CC1=NN(C2=NS(=O)(=O)c3ccccc32)C(C)(O)C1` (stereo unspecified), under setting [1], the AC50 is 25.1 µM [rising, partial curve, poor fit]. Take `COC(=O)/C=c1\sc2n(c1=O)C(C)=CC(C)(C)N=2`: the AC50 under setting [1] is 20.6 µM [falling, single point].

Consider `COc1cc2c(cc1OC)C(Cc1ccc(O)cc1)NCC2` (stereo unspecified), for which, under setting [2], the AC50 is 29.1 µM [falling, single point]. For `COc1cc(C(=O)Oc2cccc(/C=N/NC(=O)c3cccnc3)c2)cc(OC)c1OC`, the AC50 under setting [1] was 1.78 µM [falling, partial curve, poor fit]. For the compound `Clc1ccc(-c2nnc3c4ccccc4nc(N4CCOCC4)n23)cc1Cl`, the AC50 under setting [1] is 12.6 µM [falling, partial curve].

As for `O=C1OC(c2ccc3c(c2)OCO3)N(C(=O)c2ccc(Cl)c(Cl)c2)c2ccccc21` (stereo unspecified), the AC50 under setting [1] was 0.0146 µM [falling, full curve]. Turning to `COc1cccc(C(=O)N/N=C(\C)c2cccc(NC(=O)c3ccc(F)cc3)c2)c1OC`, the AC50 under setting [1] is 8.91 µM [falling, partial curve, poor fit]. Consider `CC(C)(C)NC(=O)C(c1c[nH]c2ccccc12)N(C(=O)Cn1nnc(-c2ccc(F)cc2)n1)c1cccc(O)c1` (stereo unspecified), for which the AC50 under setting [1] was 29.1 µM [falling, single point].

In the case of `C=C(C)COc1ccc(-c2nc(N)ncc2-c2ccc(Cl)cc2)c(O)c1`, the AC50 under setting [1] is 3.55 µM [rising, single point]. Take `O=C(O)c1cc(=O)n(Cc2ccccc2)c(=O)[nH]1`: the AC50 under setting [1] was 35.5 µM [falling, partial curve, poor fit]. With `CC1=C(C(=O)Nc2ccccn2)C(c2ccc(Br)cc2)NC(=S)N1` (stereo unspecified), the AC50 under setting [1] was 1.3 µM [falling, full curve]. As to `CS(=O)(=O)Nc1ccc(N2CCN(c3ccc(C(F)(F)F)cn3)CC2)nc1`, the AC50 under setting [1] is 7.94 µM [rising, partial curve, poor fit]. Turning to `Cc1ccc(NS(=O)(=O)c2cc(C(=O)Nc3cccc([N+](=O)[O-])c3)ccc2C)cc1`, the AC50 under setting [1] is 29.1 µM [falling, single point].

`Cc1sc2ncnc(Sc3ccccc3C(=O)Nc3ccc(Br)cc3)c2c1C`: the AC50 under setting [1] was 16.4 µM [falling, partial curve]. For `Cc1[nH]n(C(C)(C)C)c(=O)c1Sc1ccccc1`, the AC50 under setting [1] is 1.26 µM [falling, full curve, poor fit]. As to `S=C(Nc1cccc(Cl)c1)Nc1cccc2cnccc12`, under setting [1], the AC50 was 29.1 µM [falling, single point].

For the compound `NCCCn1c(C(=O)c2cc(Cl)c(N)c(Cl)c2)c2ccc(C(F)(F)F)cc2[n+]1[O-]`, the AC50 under setting [1] is 10.3 µM [falling, partial curve]. As to `O=C(/C=C/c1ccccc1)/C=C/c1ccccc1`, the AC50 under setting [1] is 11.2 µM [falling, partial curve] and the AC50 under setting [2] is 35.5 µM [rising, partial curve, poor fit]. On to `Cc1cc(C)n(-c2ccc(C(=O)Nc3ccc(S(=O)(=O)NCc4ccco4)cc3)cc2)n1`, for which the AC50 under setting [1] was 10 µM [falling, partial curve, poor fit]. On the same count and under the same terms, for `COc1ccc(Cl)cc1NC(=O)COC(=O)CCCN1C(=O)c2ccccc2C1=O` the value was 32.6 µM [rising, single point]. Regarding `Cc1ccc(NC(=O)COc2ccccc2C(=O)NCc2ccccc2)cc1`, under setting [1], the AC50 is 6.51 µM [rising, full curve, poor fit]. As to `O=C(Oc1cccc2cccnc12)c1ccco1`, the AC50 under setting [2] is 29.1 µM [falling, single point]. `COc1cc(NC(=O)c2[nH]cnc2C(N)=O)cc(C(=O)Nc2cccc(C(F)(F)F)c2)c1`: the half-maximal activity concentration (AC50) under setting [1] was 7.31 µM [rising, partial curve, poor fit]. For `O=C(Oc1ccccc1)c1cccc2cccnc12`, the AC50 under setting [2] was 29.1 µM [falling, single point].

Consider `COc1ccc(CNC(=O)C[C@H]2C[C@H](C(=O)N(C(C)C)C(C)C)[C@@]3(C)c4[nH]c5cc(-c6ccco6)ccc5c4CCN3C2=O)cc1OC`, for which the AC50 under setting [1] was 18.4 µM [falling, single point]. `NC(=O)C1(C(N)=O)OC1c1ccc(Cl)c(Cl)c1` (stereo unspecified): the AC50 under setting [1] is 3.16 µM [rising, partial curve, poor fit]. On the same count and under the same terms, then `N#C/C(=C(/O)COc1ccccc1)c1nc2ccccc2s1`, with 1.58 µM [falling, full curve]; and `Cc1cc(NC(=S)NC(=O)c2ccccc2)ccc1-c1cc2ccccc2oc1=O`, with 29.1 µM [rising, single point]. Regarding `O=C(Nc1ccc(Cl)c(C(F)(F)F)c1)c1ccco1`, the AC50 under setting [1] is 23.1 µM [rising, single point]. On to `CCOc1ccccc1NC(=O)CSc1nnc(-c2ccncc2)o1`, for which the AC50 under setting [1] was 29.1 µM [falling, single point]. For `Cc1ccc(SCC(=O)Nc2ccccc2C(=O)O)cc1`, the AC50 under setting [1] was 6.51 µM [falling, partial curve, poor fit]. Regarding `COCc1c(C(=O)N2CCN(S(=O)(=O)c3ccccc3Cl)CC2)oc2ccccc12`, the AC50 under setting [1] was 25.9 µM [rising, single point]. The same measure, in the same setting: then `CCCNC(=O)c1noc2c1CCc1ccccc1-2`, with 18.4 µM [falling, single point]; and `COc1ccccc1NC(=O)CN1CCCCCC1`, with 17.8 µM [falling, partial curve, poor fit]. The same measure, in the same setting: for `COC(=O)c1cccnc1-n1c(=O)c2cccnc2n(CC(=O)Nc2ccc(Br)cc2)c1=O` the value was 10 µM [rising, partial curve, poor fit]. With `Cc1ccc(-n2nc(N)c3c(=O)oc(N(C)C)nc32)cc1`, the AC50 under setting [1] is 0.0891 µM [falling, full curve, poor fit].

Source of the values: PubChem BioAssay AID493014 (National Center for Advancing Translational Sciences (NCATS), 2011).
